# Melanoma cell counts after drug treatment

Compounds and concentrations:
GW0742 (2 µM): Cc1cc(SCc2sc(-c3ccc(C(F)(F)F)c(F)c3)nc2C)ccc1OCC(=O)O
XAV939 (2 µM): Oc1nc(-c2ccc(C(F)(F)F)cc2)nc2c1CSCC2
bortezomib (0.001 µM): CC(C)C[C@H](NC(=O)[C@H](Cc1ccccc1)NC(=O)c1cnccn1)B(O)O
GW2580 (1 µM): COc1ccc(COc2ccc(Cc3cnc(N)nc3N)cc2OC)cc1
CHIR-265 (0.08 µM): Cn1c(Nc2ccc(C(F)(F)F)cc2)nc2cc(Oc3ccnc(-c4ncc(C(F)(F)F)[nH]4)c3)ccc21
enzastaurin (0.8 µM): Cn1cc(C2=C(c3cn(C4CCN(Cc5ccccn5)CC4)c4ccccc34)C(=O)NC2=O)c2ccccc21
veliparib (1.4 µM): C[C@]1(c2nc3c(C(N)=O)cccc3[nH]2)CCCN1
erlotinib (0.8 µM): C#Cc1cccc(Nc2ncnc3cc(OCCOC)c(OCCOC)cc23)c1
BMS-536924 (0.2 µM): Cc1cc(N2CCOCC2)cc2[nH]c(-c3c(NC[C@@H](O)c4cccc(Cl)c4)cc[nH]c3=O)nc12
RKI-983 (0.4 µM): C[C@@H](N)c1ccc(C(=O)Nc2ccnc3[nH]ccc23)cc1
lenalidomide (1 µM): Nc1cccc2c1CN(C1CCC(=O)NC1=O)C2=O (centres unmarked)
CX-4945 (0.4 µM): O=C(O)c1ccc2c(c1)nc(Nc1cccc(Cl)c1)c1ccncc12
GSK0660 (1 µM): COC(=O)c1sccc1S(=O)(=O)Nc1ccc(Nc2ccccc2)cc1OC

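Human melanoma cells were exposed to a pair of drugs for 72 h in 1,536-well plates and read by automated microscopy after fixing and staining. Values are the number of DAPI-stained nuclei as a percentage of the DMSO control: 100 is no effect, lower means fewer cells. Every drug was used at one fixed concentration, the lower of two screened (a fifth of the higher). No replicate spread is given; individual values may be noisy.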 This is part of the screen, not chosen by result.

- XAV939 and erlotinib : MEL-HO: 73.1; A2058: 83.8
- GW2580 and BMS-536924 : MEL-HO: 105; A2058: 103
- RKI-983 and CX-4945 : MEL-HO: 76.1; A2058: 75.9
- lenalidomide and enzastaurin : MEL-HO: 101; A2058: 94.1
- lenalidomide and GSK0660 : MEL-HO: 104; A2058: 113
- CX-4945 and enzastaurin : MEL-HO: 92.8; A2058: 90.5
- CHIR-265 and GW2580 : MEL-HO: 96.4; A2058: 93.7
- GW0742 and XAV939 : MEL-HO: 81.8; A2058: 85.5
- BMS-536924 and bortezomib : MEL-HO: 95.3; A2058: 81.6
- erlotinib and GW2580 : MEL-HO: 102; A2058: 97.1
- GSK0660 and veliparib : MEL-HO: 103; A2058: 89.9
- GSK0660 and BMS-536924 : MEL-HO: 95.1; A2058: 96.5
- lenalidomide and XAV939 : MEL-HO: 107; A2058: 77.8
- CHIR-265 and RKI-983 : MEL-HO: 77.9; A2058: 90.0
- veliparib and GW0742 : MEL-HO: 88.3; A2058: 87.4
- enzastaurin and CHIR-265 : MEL-HO: 78.9; A2058: 85.9
- CX-4945 and veliparib : MEL-HO: 83.5; A2058: 80.3
- XAV939 and BMS-536924 : MEL-HO: 85.8; A2058: 80.0
- GW0742 and CX-4945 : MEL-HO: 76.4; A2058: 102
- GW2580 and lenalidomide : MEL-HO: 88.7; A2058: 78.3
- bortezomib and CX-4945 : MEL-HO: 87.4; A2058: 77.0
- GW0742 and erlotinib : MEL-HO: 85.1; A2058: 99.2
- CHIR-265 and XAV939 : MEL-HO: 84.1; A2058: 72.7
- enzastaurin and bortezomib : MEL-HO: 105; A2058: 108
- bortezomib and GW2580 : MEL-HO: 88.5; A2058: 83.6

The last 2 entries again:

{"pair": "enzastaurin and bortezomib", "MEL-HO": 105, "A2058": 108}
{"pair": "bortezomib and GW2580", "MEL-HO": 88.5, "A2058": 83.6}

Values as published with doi:10.1371/journal.pone.0140310, rounded.